In publication PMC11111408, “Concurrent inhibition of oncogenic and wild-type RAS-GTP for cancer therapy” (Nature, 2024):
This continues a long series; more values of the same kind are listed elsewhere.

Test system: PRISM DNA-barcoded human tumour cell lines
Assay: PRISM pooled cell viability assay;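 note: 8 threefold dilutions from 10 µM with 5 days of exposure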
Assay type: cell-based
Design: Area under the curve (AUC): scale not given here
Procedure: Cells were then lysed in TCL mRNA lysis buffer, and then PCR with reverse transcription was performed. Detection of the barcodes and univariate and multivariate analysis was then performed as previously described. Data analysis is described in the Supplementary Methods. Up-to-date code for our analysis is at the github link: https://github.com/cmap/dockerized_mts.
For every gene with non-silent mutations in at least four cell-lines, we compared the AUC values between cells with and without those mutations using a t-test. This analysis was carried out for: (i) the full dataset; (ii) excluding cell lines with non-silent KRAS mutations; and (iii) excluding cell lines that have either KRAS or NRAS non-silent mutations.

For `CCn1c(-c2cc(N3CCN(C4CC4)CC3)cnc2[C@H](C)OC)c2c3cc(ccc31)-c1csc(n1)C[C@H](NC(=O)[C@H]1[C@@H]3COC[C@@H]31)C(=O)N1CCC[C@H](N1)C(=O)OCC(C)(C)C2` [RMC-7977], the “Area under the curve (AUC)” value (HCC1359_LUNG) was 0.7738, the “PRISM AUC” value (HCC1359_LUNG, KRAS WT) was 0.637 and the “Area under the curve (AUC)” value (HCC1395_BREAST) was 0.7027. The “PRISM AUC” value (HCC1395_BREAST, KRAS WT) was 0.7851, the “Area under the curve (AUC)” value (HCC1419_BREAST) was 0.7199 and the “PRISM AUC” value (HCC1419_BREAST, KRAS WT) was 0.6938. The “Area under the curve (AUC)” value (HCC1428_BREAST) was 0.7706, the “PRISM AUC” value (HCC1428_BREAST, KRAS WT) was 0.6968 and the “Area under the curve (AUC)” value (HCC1438_LUNG) was 0.9076. The “Area under the curve (AUC)” value (HCC1806_BREAST) was 0.8434, the “PRISM AUC” value (HCC1806_BREAST, KRAS WT) was 0.6257 and the “Area under the curve (AUC)” value (HCC1937_BREAST) was 0.8942. For the same molecule, the “PRISM AUC” value (HCC1937_BREAST, KRAS WT) was 0.8028, the “Area under the curve (AUC)” value (HCC1954_BREAST) was 0.6247 and the “PRISM AUC” value (HCC1954_BREAST, KRAS WT) was 0.4883. The “Area under the curve (AUC)” value (HCC2108_LUNG) was 0.5948, the “Area under the curve (AUC)” value (HCC4006_LUNG) was 0.4424 and the “PRISM AUC” value (HCC4006_LUNG, KRAS WT) was 0.2966. For the same molecule, the “Area under the curve (AUC)” value (HCSC1_CERVIX) was 0.9755, the “Area under the curve (AUC)” value (HCT15_LARGE_INTESTINE) was 0.8156 and the “Area under the curve (AUC)” value (HCT116_LARGE_INTESTINE) was 0.6195. For the same molecule, the “Area under the curve (AUC)” value (HDMB03_CENTRAL_NERVOUS_SYSTEM) was 0.7078, the “Area under the curve (AUC)” value (HDMYZ_HAEMATOPOIETIC_AND_LYMPHOID_TISSUE) was 0.7318 and the “Area under the curve (AUC)” value (HDQP1_BREAST) was 0.5274. The “PRISM AUC” value (HDQP1_BREAST, KRAS WT) was 0.3029, the “Area under the curve (AUC)” value (HEC1A_ENDOMETRIUM) was 0.6698 and the “Area under the curve (AUC)” value (HEC1B_ENDOMETRIUM) was 0.5914. For the same molecule, the “Area under the curve (AUC)” value (HEC1_ENDOMETRIUM) was 0.7812, the “Area under the curve (AUC)” value (HEC6_ENDOMETRIUM) was 0.8337 and the “PRISM AUC” value (HEC6_ENDOMETRIUM, KRAS MUT) was 0.9413. The “Area under the curve (AUC)” value (HEC59_ENDOMETRIUM) was 1, the “PRISM AUC” value (HEC59_ENDOMETRIUM, KRAS WT) was 0.953 and the “Area under the curve (AUC)” value (HEC108_ENDOMETRIUM) was 0.7068. For the same molecule, the “PRISM AUC” value (HEC108_ENDOMETRIUM, KRAS WT) was 0.6207, the “Area under the curve (AUC)” value (HEC116_ENDOMETRIUM) was 0.6479 and the “Area under the curve (AUC)” value (HEC151_ENDOMETRIUM) was 0.7673. The “PRISM AUC” value (HEC151_ENDOMETRIUM, KRAS WT) was 0.5346, the “Area under the curve (AUC)” value (HEC251_ENDOMETRIUM) was 0.603 and the “PRISM AUC” value (HEC251_ENDOMETRIUM, KRAS MUT) was 0.5893. For the same molecule, the “Area under the curve (AUC)” value (HEC265_ENDOMETRIUM) was 0.8822, the “PRISM AUC” value (HEC265_ENDOMETRIUM, KRAS WT) was 0.8298 and the “Area under the curve (AUC)” value (HEL9217_HAEMATOPOIETIC_AND_LYMPHOID_TISSUE) was 0.6808. The “PRISM AUC” value (HEL9217_HAEMATOPOIETIC_AND_LYMPHOID_TISSUE, KRAS WT) was 0.5969, the “Area under the curve (AUC)” value (HEL_HAEMATOPOIETIC_AND_LYMPHOID_TISSUE) was 0.7753 and the “PRISM AUC” value (HEL_HAEMATOPOIETIC_AND_LYMPHOID_TISSUE, KRAS WT) was 0.8357. For the same molecule, the “Area under the curve (AUC)” value (HEP3B217_LIVER) was 0.8334, the “PRISM AUC” value (HEP3B217_LIVER, KRAS WT) was 0.8015 and the “Area under the curve (AUC)” value (HEPG2_LIVER) was 0.5208. For the same molecule, the “PRISM AUC” value (HEPG2_LIVER, KRAS WT) was 0.4927, the “Area under the curve (AUC)” value (HEYA8_OVARY) was 0.65 and the “Area under the curve (AUC)” value (HGC27_STOMACH) was 0.7654. The “PRISM AUC” value (HGC27_STOMACH, KRAS WT) was 0.6479, the “Area under the curve (AUC)” value (HH_HAEMATOPOIETIC_AND_LYMPHOID_TISSUE) was 0.9486 and the “PRISM AUC” value (HH_HAEMATOPOIETIC_AND_LYMPHOID_TISSUE, KRAS WT) was 0.7213. The “Area under the curve (AUC)” value (HKA1_SKIN) was 0.7583, the “Area under the curve (AUC)” value (HKGZCC_BILIARY_TRACT) was 0.3768 and the “Area under the curve (AUC)” value (HLF_LIVER) was 0.6104. For the same molecule, the “PRISM AUC” value (HLF_LIVER, KRAS WT) was 0.5492, the “Area under the curve (AUC)” value (HMC18_BREAST) was 0.3264 and the “Area under the curve (AUC)” value (HOS_BONE) was 0.7412. The “PRISM AUC” value (HOS_BONE, KRAS WT) was 0.7033, the “Area under the curve (AUC)” value (HOTHC_THYROID) was 0.8838 and the “Area under the curve (AUC)” value (HPAC_PANCREAS) was 0.507. For the same molecule, the “Area under the curve (AUC)” value (HPAFII_PANCREAS) was 0.431, the “Area under the curve (AUC)” value (HPBALL_HAEMATOPOIETIC_AND_LYMPHOID_TISSUE) was 1 and the “Area under the curve (AUC)” value (HS294T_SKIN) was 0.8964. For the same molecule, the “PRISM AUC” value (HS294T_SKIN, KRAS WT) was 0.9509, the “Area under the curve (AUC)” value (HS611T_HAEMATOPOIETIC_AND_LYMPHOID_TISSUE) was 0.9844 and the “Area under the curve (AUC)” value (HS683_CENTRAL_NERVOUS_SYSTEM) was 0.6778. The “PRISM AUC” value (HS683_CENTRAL_NERVOUS_SYSTEM, KRAS WT) was 0.6553, the “Area under the curve (AUC)” value (HS729_SOFT_TISSUE) was 0.8586 and the “PRISM AUC” value (HS729_SOFT_TISSUE, KRAS WT) was 0.8632. For the same molecule, the “Area under the curve (AUC)” value (HS766T_PANCREAS) was 0.3954, the “PRISM AUC” value (HS766T_PANCREAS, KRAS MUT) was 0.3087 and the “Area under the curve (AUC)” value (HS852T_SKIN) was 0.9207. The “PRISM AUC” value (HS852T_SKIN, KRAS WT) was 0.8852, the “Area under the curve (AUC)” value (HS939T_SKIN) was 0.9926 and the “PRISM AUC” value (HS939T_SKIN, KRAS WT) was 0.981. The “Area under the curve (AUC)” value (HS944T_SKIN) was 0.6142, the “PRISM AUC” value (HS944T_SKIN, KRAS WT) was 0.2298 and the “Area under the curve (AUC)” value (HSC1_SKIN) was 0.606. The “Area under the curve (AUC)” value (HSC2_UPPER_AERODIGESTIVE_TRACT) was 0.6073, the “PRISM AUC” value (HSC2_UPPER_AERODIGESTIVE_TRACT, KRAS WT) was 0.4147 and the “Area under the curve (AUC)” value (HSC3_UPPER_AERODIGESTIVE_TRACT) was 0.5697. For the same molecule, the “PRISM AUC” value (HSC3_UPPER_AERODIGESTIVE_TRACT, KRAS WT) was 0.3648, the “Area under the curve (AUC)” value (HSC5_SKIN) was 0.6036 and the “Area under the curve (AUC)” value (HSKTC_OVARY) was 0.9527. For the same molecule, the “Area under the curve (AUC)” value (HT3_CERVIX) was 0.6736, the “Area under the curve (AUC)” value (HT29_LARGE_INTESTINE) was 0.9035 and the “Area under the curve (AUC)” value (HT55_LARGE_INTESTINE) was 0.7332. The “Area under the curve (AUC)” value (HT115_LARGE_INTESTINE) was 0.7054, the “PRISM AUC” value (HT115_LARGE_INTESTINE, KRAS WT) was 0.6096 and the “Area under the curve (AUC)” value (HT144_SKIN) was 0.94. For the same molecule, the “Area under the curve (AUC)” value (HT1080_SOFT_TISSUE) was 0.5791, the “PRISM AUC” value (HT1080_SOFT_TISSUE, KRAS WT) was 0.2097 and the “Area under the curve (AUC)” value (HT1197_URINARY_TRACT) was 0.8159. The “PRISM AUC” value (HT1197_URINARY_TRACT, KRAS WT) was 0.68, the “Area under the curve (AUC)” value (HT1376_URINARY_TRACT) was 0.6186 and the “PRISM AUC” value (HT1376_URINARY_TRACT, KRAS WT) was 0.4962. The “Area under the curve (AUC)” value (HTMMT_ENDOMETRIUM) was 0.8603, the “Area under the curve (AUC)” value (HT_HAEMATOPOIETIC_AND_LYMPHOID_TISSUE) was 0.7511 and the “Area under the curve (AUC)” value (HUCCT1_BILIARY_TRACT) was 0.4343. The “Area under the curve (AUC)” value (HUG1N_STOMACH) was 0.8176, the “Area under the curve (AUC)” value (HUH1_LIVER) was 0.7901 and the “Area under the curve (AUC)” value (HUH6_LIVER) was 0.7518. For the same molecule, the “Area under the curve (AUC)” value (HUH7_LIVER) was 0.903, the “Area under the curve (AUC)” value (HUH28_BILIARY_TRACT) was 0.8849 and the “Area under the curve (AUC)” value (HUO9_BONE) was 1. The “Area under the curve (AUC)” value (HUPT3_PANCREAS) was 0.398, the “Area under the curve (AUC)” value (HUPT4_PANCREAS) was 0.3391 and the “Area under the curve (AUC)” value (IALM_LUNG) was 0.4787. The “Area under the curve (AUC)” value (ICC4_BILIARY_TRACT) was 0.9763, the “Area under the curve (AUC)” value (ICC8_BILIARY_TRACT) was 0.8603 and the “Area under the curve (AUC)” value (ICC9_BILIARY_TRACT) was 0.4855. The “Area under the curve (AUC)” value (ICC10_BILIARY_TRACT) was 0.4866, the “Area under the curve (AUC)” value (ICC12_BILIARY_TRACT) was 0.833 and the “Area under the curve (AUC)” value (ICC137_BILIARY_TRACT) was 0.6696. For the same molecule, the “Area under the curve (AUC)” value (IGR1_SKIN) was 0.8984.
